Reference: PubChem BioAssay AID1347075 (National Center for Advancing Translational Sciences (NCATS), 2019)
In all, about 400,000 compounds went through this assay and about 5,500 (1.4%) were called active. Inconclusive means that the source gave no clear call. Such entries were picked first, then a sample of the others. The call rests on the fitted dose curve; in most records, active means well fitted cell-killing curve with a large enough effect; inconclusive means small, poorly fitted or top-dose-only effect, or effect the other way; inactive means flat fitted curve, though single readings scatter. Where the call is inconclusive, the potency comes from a doubtful curve fit.
On the % scale 0 is the no-effect control and ±100 the full control effect; potency means the concentration at half of the fitted maximal effect.

Test: qHTS assay for MDR1-selective chemotherapeutics: Primary screen using the parental adenocarcinoma cell KB-3-1; further: nearly all actives have a fitted effect of over 60% in size
Details: KB-3-1 viability, CellTiter-Glo ATP luminescence, 72 h; activity change, negative = cytotoxic: at 46.1 µM (top of the series)
Outline: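 Screening of KB-3-1 cells (DMEM, 10% FBS, phenol-red free) ran from lowest to highest compound concentration; after 72 h at 37 °C viability was read luminescently and curves fitted.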
For `CC(C)/C=N/Nc1nc(-c2ccc(Br)cc2)cs1`, the Potency was inconclusive: 23.1 µM [cytotoxic, single point]. For `CC(=O)/C(=N/Nc1ccc(C)cc1)Sc1nnc(CCc2ccccc2)n1-c1ccccc1`, the activity change, negative = cytotoxic was inconclusive: -1.52%. With `CC(C(=O)Nc1cc(Cl)cc(Cl)c1)N1CCCC1` (configuration not stated) the “activity change, negative = cytotoxic” value was inactive: -6.3%. In the case of `CCc1cc(-c2n[nH]c(C)c2Oc2ccc(C(C)C)cc2)c(O)cc1O`, the Potency is reported as inconclusive: 23.1 µM [cytotoxic, single point]. For `Cc1ccc(C)c(N2CCN(C(=O)CCC(=O)N3CCOc4ccc(Cl)cc43)CC2)c1`, the Potency was inconclusive: 18.4 µM [cytotoxic, single point]. With `CC(C)Cc1ccc(CN2CCCC(NC(=O)c3cnc4ccccn4c3=O)C2)cc1` (configuration not stated) the Potency was active: 16.4 µM. For `Cc1ccc(OCC(=O)NC2CCCC2)c(C)c1`, the Potency was inconclusive: 25.9 µM [cytotoxic, partial curve]. With `CC1(C)c2ccccc2N(CC(N)=O)C12C=Cc1ccccc1O2` (configuration not stated) the Potency was inconclusive: 20.6 µM [cytotoxic, single point]. With `COc1ccc([C@H]2CC(=O)C=C(c3ccc(Oc4ccccc4)cc3)C2)cc1OC` the Potency was inconclusive: 23.1 µM [cytotoxic, partial curve]. With `CCOC(=O)C1=Nc2ccccc2C1=[N+]=[N-]` the Potency was inconclusive: 9.2 µM [cytotoxic, single point]. For `CCOC(=O)N1CCC(NC(=O)CNS(=O)(=O)c2ccc(Br)s2)CC1`, the Potency was inconclusive: 23.1 µM [cytotoxic, single point]. With `CCN(CC)S(=O)(=O)c1cccc(NC(=O)c2ccc(-n3nc(C)cc3C)cc2)c1` the Potency was inconclusive: 20.6 µM [cytotoxic, single point]. In the case of `CCN(CC)C(=O)CSc1nc2ccc(NC(=O)CSc3nccn3C)cc2s1`, the “activity change, negative = cytotoxic” value is reported as inactive: -11.9%. With `Cc1ccc2cn[nH]c2c1[N+](=O)[O-]` the “activity change, negative = cytotoxic” value was inactive: -1.04%. For `CCOC(=O)c1[nH]c2ccccc2c1NC(=S)Nc1cccc(C)c1`, the “activity change, negative = cytotoxic” value was inactive: -6.09%. With `COc1ccc(O)c(C(=O)c2cnn(S(=O)(=O)c3ccc(C)cc3)c2)c1` the Potency was inconclusive: 3.66 µM [rising, partial curve]. For `COc1ccc(C(C)=O)cc1CC(=O)Nc1cccc(S(=O)(=O)N2CCOCC2)c1`, the activity change, negative = cytotoxic was inconclusive: -16.1%. In the case of `O=C1Nc2ccccc2C(=O)N(C2CCCC2)C1C(=O)NC1CC1` (configuration not stated), the “activity change, negative = cytotoxic” value is reported as inactive: 18.6%. For `COc1ccc(CCNC(=O)c2ccc(Cn3c(=O)c4ccccc4n(Cc4cccc(F)c4)c3=O)cc2)cc1OC`, the “activity change, negative = cytotoxic” value was inactive: -26.1%. For `CCn1nc(CC(=O)Nc2ccc(-n3cnnn3)c(OC)c2)c2ccccc2c1=O`, the Potency was inconclusive: 23.1 µM [rising, single point]. In the case of `CC(C)CC#Cc1ccc2c(c1)O[C@H](CN(C)C(=O)Cc1ccncc1)[C@H](C)CN([C@H](C)CO)S2(=O)=O`, the Potency is reported as inconclusive: 23.1 µM [cytotoxic, single point]. With `Cc1cc(-c2ccccc2)cc(-c2ccccc2)[n+]1C` the Potency was inconclusive: 29.1 µM [cytotoxic, single point]. For `COc1ccccc1N(C)S(=O)(=O)c1ccc(C(=O)Nc2ccc3nc(C)sc3c2)cc1`, the Potency was inconclusive: 29.1 µM [cytotoxic, single point]. For `Cc1nn(C)c(C(=O)N2CCc3ccccc32)c1Br`, the “activity change, negative = cytotoxic” value was inactive: -17.4%. For `C[C@@H]1CN([C@H](C)CO)C(=O)Cc2cc(NC(=O)Cn3cnnn3)ccc2O[C@@H]1CN(C)Cc1ccc(Cl)c(Cl)c1`, the “activity change, negative = cytotoxic” value was inactive: 1.21%. With `CCOC(=O)C(=CNc1nc(-c2ccccc2)c(C(=O)Nc2ccc(-c3ccccc3)cc2)s1)C(=O)OCC` the “activity change, negative = cytotoxic” value was inactive: 6.63%. With `NC(=S)NN=C1CCCCCCCC1` the Potency was active: 18.4 µM. In the case of `CCOc1ccc(S(=O)(=O)N2CCCC(C(=O)NCc3cccnc3)C2)cc1C` (configuration not stated), the “activity change, negative = cytotoxic” value is reported as inactive: -5.11%. With `COc1ccc(NC(=O)CSc2ncnc3c2sc2ccccc23)c(OC)c1` the “activity change, negative = cytotoxic” value was inactive: -19.1%. For `CS(=O)(=O)c1ccc(Cl)c(NC(=O)CCl)c1`, the Potency was active: 6.51 µM. In the case of `c1cnc(N2CCN(c3ncc4c(n3)CCNC4)CC2)nc1`, the “activity change, negative = cytotoxic” value is reported as inactive: 2.12%. For `Cc1ccc(C2=NS(=O)(=O)N(C)C(C(=O)NCc3ccccn3)=C2)cc1`, the activity change, negative = cytotoxic was inconclusive: 33.9%. In the case of `Cc1ccc(-c2cc(C(=O)N/N=C\c3cnn(C)c3C)c3ccccc3n2)cc1C`, the Potency is reported as inconclusive: 29.1 µM [cytotoxic, single point]. For `CCOC(=O)c1cc(-c2csc(Nc3c(C)cc(C)cc3C)n2)on1`, the Potency was inconclusive: 29.1 µM [cytotoxic, single point]. With `Cc1cccc(OCCCC(=O)NCC(=O)Nc2cccc(C)c2C)c1` the “activity change, negative = cytotoxic” value was inactive: -6.2%. For `CC(=O)N1c2ccccc2C(C)(c2ccc(C)cc2)CC1(C)C` (configuration not stated), the “activity change, negative = cytotoxic” value was inactive: -3.13%. With `CN1C(=O)c2ccccc2Sc2ccc(NC(=O)N3CCN(c4ccccc4)CC3)cc21` the Potency was inconclusive: 20.6 µM [cytotoxic, single point]. In the case of `CN(C)c1ccc(-c2csc(C(O)c3cccc(Cl)c3)n2)cc1` (configuration not stated), the “activity change, negative = cytotoxic” value is reported as inactive: -0.0066%. With `CCOc1ccc(CCNC(=O)c2cc3sc(Cl)cc3n2C)cc1OCC` the Potency was inconclusive: 29.1 µM [cytotoxic, single point]. In the case of `Cc1noc(C)c1CSc1nc2sc(C)c(C)c2c(=O)n1-c1ccccc1`, the “activity change, negative = cytotoxic” value is reported as inactive: -12.7%. With `O=C(Nn1cc(C(=O)Nc2ccc(F)cc2F)c2ccccc2c1=O)c1cnccn1` the Potency was inconclusive: 13 µM [cytotoxic, partial curve]. With `C[C@@H]1CN([C@@H](C)CO)C(=O)c2cc(NS(=O)(=O)c3ccc(F)cc3)ccc2O[C@@H](C)CCCCO[C@H]1CN(C)C(=O)NC1CCCCC1` the Potency was inconclusive: 29.1 µM [cytotoxic, single point]. In the case of `CC(C)C(=O)NC(=S)Nc1ccc(CN2CCOCC2)cc1`, the “activity change, negative = cytotoxic” value is reported as inactive: 8.35%. In the case of `CC(C)=CC(O)C/C(C)=C/COc1ccc2ccc(=O)oc2c1` (configuration not stated), the Potency is reported as active: 5.8 µM. In the case of `CC1CCc2c(sc(NC(=O)CSc3ncn[nH]3)c2C#N)C1` (configuration not stated), the Potency is reported as inconclusive: 29.1 µM [cytotoxic, single point]. With `CCOc1ccc(Br)cc1S(=O)(=O)Nc1cccc(S(=O)(=O)N(C)c2ccccc2)c1` the Potency was inconclusive: 29.1 µM [cytotoxic, single point]. In the case of `O=C1NC[C@H](CCCCN2C[C@H](Cc3ccccc3)N(CC3CCCCC3)C(=O)C2=O)N(CCC2CCCCC2)C1=O`, the Potency is reported as inconclusive: 29.1 µM [cytotoxic, single point].
